Reference: PubChem BioAssay AID504834 (National Center for Advancing Translational Sciences (NCATS), 2011)
The campaign covered roughly 320,000 compounds. About 22,000 (6.9%) were called active. This list was built around the results that the source calls inconclusive (neither active nor inactive); the mix of calls is not that of the screen. The call rests on the fitted dose curve; in most records, active means well fitted inhibition curve with a large enough effect; inconclusive means small, poorly fitted or top-dose-only effect, or another doubt; inactive means no such curve, though single readings can be large or run the other way. Potencies beside an inconclusive call are fits to weak or partial responses and may not hold up. Some compounds were tested as several samples or in several runs, with calls that do not always agree.

experiment: Primary qHTS for delayed death inhibitors of the malarial parasite plastid, 96 hour incubation; conditions: P. falciparum luciferase reporter growth; series mostly up to 28.7 µM
Summary of the method: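 Parasite growth measured via integrated firefly luciferase reporter in P. falciparum. Infected erythrocytes at 2% hematocrit, 0.05% parasitemia final were treated 96 hours at 37 C under 5% CO2, and luminescence was read.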
Potency means the concentration at half of the fitted maximal effect.

Structure (SMILES) | Potency
Cc1ccc(/C=C2\C(=O)ON=C2c2ccccc2)o1 | inactive
COc1cc(OC)cc(-c2c(C#Cc3ccsc3)c3cc(-c4ccc(OC)nc4)ccc3n2C)c1 | inconclusive: 1.85 µM [inhibitor, full curve]
O=C(NNC(=S)Nc1ccc(Cl)cc1Cl)c1ccncc1 | active: 4.15 µM
CCOC(=O)C1=C(CN2CCSCC2)NC(=O)NC1c1ccc2c(c1)OCO2 (stereo not drawn) | inactive
Cc1cccc(NC(=O)c2sc(NC(=O)c3ccco3)c(C#N)c2C)c1C | inconclusive: 0.738 µM [inhibitor, full curve, poor fit]
Cc1ccc(C(=O)c2ccccc2C(=O)OCC(=O)Nc2ccc(SC(F)F)cc2)cc1 | inactive
O=C(Cc1cccc(NC(=O)C2CCN(C(=O)C3CCCC3)CC2)c1)Nc1cccc(C(=O)N2CCCC2)c1 | inconclusive: 1.85 µM [inhibitor, single point]
O=S(=O)(c1ccccc1)c1nnn2c1nc(NC1CCN(Cc3ccccc3)CC1)c1ccccc12 | inconclusive: 18.5 µM [inhibitor, single point]
CCC(C)[C@H](NC(=O)NCc1ccc(S(N)(=O)=O)cc1)C(=O)O (stereo partly drawn) | inactive
CC(C)Cc1nn2c(=O)cc(CSCC(=O)Nc3ccccc3F)nc2s1 | inactive
CN(CC(=O)Nc1ccc(F)cc1)C(=O)c1ccc(-c2ccc(Cl)cc2)o1 | active: 2.33 µM
CCOC(=O)c1c(NC(=O)c2ccco2)n(C2CCCCC2)c2nc3ccccc3nc12 | active: 10.4 µM
COc1ccc(N(C)S(=O)(=O)c2cccc(C(=O)NCC(c3cccs3)N(C)C)c2)cc1 (stereo not drawn) | inconclusive: 1.47 µM [inhibitor, full curve]
CC(=O)OCCN(CCCn1c(-c2ccncc2)nc2ccccc21)c1nc(CN2CCCCC2)cs1 | inconclusive: 13.1 µM [inhibitor, partial curve, poor fit]
O=C(Nc1cccnc1)c1sc2cccc(F)c2c1Cl | inconclusive: 0.0233 µM [inhibitor, full curve, poor fit]
Cc1nnc2ccc(-c3ccc(NS(=O)(=O)c4ccccc4[N+](=O)[O-])cc3)nn12 | inconclusive: 18.5 µM [inhibitor, single point]
COC(=O)C1=C(C)N(CC2CC2)C(=NCc2cc(OC)c(OC)c(OC)c2)N[C@H]1c1ccccc1 | active: 11.7 µM
N=c1c2c(-c3ccccc3)c(-c3ccccc3)oc2ncn1CCN1CCOCC1 | active: 9.28 µM
Fc1ccc(-c2cc(-c3ccccc3)nc(-n3cccn3)n2)cc1 | inactive
CN[C@@H](CC(C)C)C(=O)N[C@@H]1C(=O)N[C@H](CC(N)=O)C(=O)N[C@@H]2C(=O)N[C@H]3C(=O)N[C@H](C(=O)N[C@H](C(=O)O)c4cc(O)cc(O)c4-c4cc3ccc4O)[C@H](O)c3ccc(c(Cl)c3)Oc3cc2cc(c3O[C@H]2O[C@@H](CO)[C@@H](O)[C@@H](O)[C@@H]2O[C@@H]2C[C@](C)(N)[C@H](O)[C@H](C)O2)Oc2ccc(cc2Cl)[C@@H]1O | inactive
COc1cccc(C2CC(c3ccccc3OC)n3ncnc3N2)c1 (stereo not drawn) | inactive
Cc1cc(C)n(/N=C/c2cccs2)c(=O)c1C#N | inconclusive: 18.5 µM [inhibitor, single point]
CCCOc1ccc(NC(=O)CC2C(=O)N(CC)C(=S)N2CCNC(C)=O)cc1 (stereo not drawn) | inactive

Structure (SMILES) | Potency
Cc1cccc(C)c1NC(=S)Nc1ccc(F)cc1 | inactive
COCCNC(=O)NC(=O)COC(=O)c1ccc2[nH]c3c(c2c1)CCCC3 | inconclusive: 0.0329 µM [inhibitor, full curve, poor fit]
CC(=O)c1ccc(NC(=O)N2CCc3ccccc3C2)cc1 | inactive
O=C(NCc1ccc(OC(F)(F)F)cc1)C1CC2Cn3c(nc4ccccc43)C2N1c1ccccc1 (stereo not drawn) | inactive
CCc1cc2c(SCC(=O)NCC3CCCO3)ncnc2s1 (stereo not drawn) | inactive
O=C(Cn1cc(C(F)(F)F)ccc1=O)Nc1ccccc1 | inactive
O=C(c1ccccc1Nc1ccc(SC(F)F)cc1)N1CCCCC1 | inconclusive: 14.7 µM [inhibitor, single point]
COc1ccc(OC)c(NC(=O)CCN2CCC(C)CC2)c1 | inconclusive: 9.28 µM [inhibitor, single point]
COc1ccccc1NC(=O)N1CCc2c([nH]c3ccccc23)C1C(F)(F)F (stereo not drawn) | inconclusive: 11.7 µM [inhibitor, partial curve, poor fit]
CCC1=C(OC(=O)N(CC)CC)N2C(=O)OC(=NCC3CC3)[C@]2(C)[C@H]2C1=CC[C@H]1C(=O)N(C)C(=O)[C@H]12 | active: 10.4 µM
COc1ccc(NC(=O)C2CC(=O)OC2(C)C)cc1 (stereo not drawn) | inactive
O=P(c1ccccc1)(c1ccccc1)N(c1ccccc1)c1ccccc1 | inconclusive: 5.22 µM [inhibitor, partial curve]
O=C(Nn1c(SCc2ccc([N+](=O)[O-])cc2)nc2ccccc2c1=O)c1ccc(F)cc1 | inconclusive: 11.7 µM [inhibitor, single point]
COc1ccccc1C(=O)Nc1ccc2c(c1)nc1n2CCN(C2CCCCC2)C1 | inconclusive: 9.28 µM [inhibitor, partial curve]
C[N+]1(CC(=O)OC2CCCCCCCCCCC2)CCCC1 | inconclusive: 11.7 µM [inhibitor, partial curve, poor fit]
C=CCC1(CC=C)CCCN1C(=O)c1cc(COc2ccc(C)nc2)on1 | inactive
Cc1ccc(NC(=O)CCC(=O)Nc2ccc(C)cc2)cc1 | inconclusive: 18.5 µM [inhibitor, single point]
COc1ccc(-n2nnnc2SCC(=O)NNC(=O)c2ccc([N+](=O)[O-])cc2)cc1 | inconclusive: 11.7 µM [inhibitor, partial curve]
COC(=O)C(O)(CC(=O)c1ccc(OC)cc1)C(F)(F)F (stereo not drawn) | inconclusive: 10.4 µM [inhibitor, single point]
COCCNC(=S)N1CCN(c2nc(-c3cccc(OC)c3)cs2)CC1 | inconclusive: 18.5 µM [inhibitor, single point]
NC(=O)C1CC2(NC(=O)NC2=O)c2cc(F)ccc2O1 (stereo not drawn) | inactive
CC(C)NC(=O)CCc1nnc(Cc2cccc(C(F)(F)F)c2)o1 | inactive
CCn1c(SCC(=O)OCc2ccccc2)nc2c1c(=O)n(C)c(=O)n2C | inconclusive: 2.94 µM [inhibitor, partial curve, poor fit]

Structure (SMILES) | Potency
CC1CCCN(C(=O)C2CCN(CCCc3ccccc3)CC2)C1 (stereo not drawn) | inconclusive: 1.65 µM [inhibitor, full curve]
CC(C)NC(=O)c1ccc(NC(=O)CC2SC(N3CCCC3)=NC2=O)cc1 (stereo not drawn) | inactive
COC(=O)c1ccc(NC(=O)N2CCOCC2)cc1 | inconclusive: 3.29 µM [inhibitor, single point]
COc1cccc(NC(=O)C2CCCN2S(=O)(=O)c2ccc3c(c2)n(C)c(=O)c(=O)n3C)c1 (stereo not drawn) | inactive
COc1cccc(CNC(=O)CCC2CCCN(C(=O)c3cc4ccccc4o3)C2)c1 (stereo not drawn) | inconclusive: 0.0033 µM [inhibitor, full curve, poor fit]
COCCN1C(=O)/C(=C/c2ccc(Oc3ccc([N+](=O)[O-])cn3)c(OC)c2)SC1=Nc1ccccc1 | active: 1.47 µM
O=C(NCCO)C(=O)c1c(-c2ccc(Cl)cc2)cc2ccccn12 | inconclusive: 3.29 µM [inhibitor, full curve]
CCCCN(CC)c1nc(N)c(C#N)c(CC#N)c1C#N | active: 3.29 µM
O=C(O)CCCC(=O)N1CCN(c2nc(-c3ccccc3)c3ccccc3n2)CC1 | inconclusive: 9.28 µM [inhibitor, single point]
Cc1cc(=O)oc2cc(NC(=O)CCCC(=O)O)ccc12 | inconclusive: 20.8 µM [inhibitor, partial curve, poor fit]
CN(C)C(=O)N1CCC(C(=O)NCC2CCCO2)CC1 (stereo not drawn) | inconclusive: 16.5 µM [inhibitor, single point]
Cc1cc(C)nc(NS(=O)(=O)c2ccc(Br)s2)c1 | inconclusive: 10.4 µM [inhibitor, single point]
CCOC(=O)N1CCC(NC(=O)CCC(=O)N2CCOc3ccc(Cl)cc32)CC1 | inactive
CC(C)(C)NC(=O)CN(C(=O)Cn1nnc(-c2ccccc2F)n1)c1cccc2c1CCCC2 | inconclusive: 0.37 µM [inhibitor, full curve, poor fit]
CC1(C)NC(=O)N(CCOCCSc2ccccc2)C1=O | active: 9.28 µM
O=C1CSC(c2cccnc2)N1c1ccc(Cl)cc1 (stereo not drawn) | inconclusive: 0.131 µM [inhibitor, full curve, poor fit]
COCCNS(=O)(=O)c1ccc(-c2ccc(Cl)cc2)cc1 | inconclusive: 3.7 µM [inhibitor, partial curve, poor fit]
COc1ccc(CN(C(=O)c2ccc(-c3ccccc3)[nH]2)C(C(=O)NCC2CCCO2)c2ccc(C)o2)cc1 (stereo not drawn) | active: 6.57 µM
Cc1ccc(S(=O)(=O)/N=C(\Nc2cccc(C)c2)Nc2nc(C)cc(C)n2)cc1 | inconclusive: 0.0052 µM [inhibitor, full curve, poor fit]
CN(C)C(CNc1ncnc2ccccc12)c1c(F)cccc1Cl (stereo not drawn) | inconclusive: 10.4 µM [inhibitor, partial curve, poor fit]
Cc1ccc(CNC(=O)Cn2c([N+](=O)[O-])cnc2C)cc1 | inconclusive: 10.4 µM [inhibitor, single point]
Cc1nn(-c2ccccc2)c2sc(C(=O)OCC(=O)N3CCCCC3)cc12 | inconclusive: 18.5 µM [inhibitor, single point]

In a second layout: entries from further up.
Structure (SMILES)	Potency
CCn1c(SCC(=O)OCc2ccccc2)nc2c1c(=O)n(C)c(=O)n2C	inconclusive: 2.94 µM [inhibitor, partial curve, poor fit]
CC1CCCN(C(=O)C2CCN(CCCc3ccccc3)CC2)C1 (stereo not drawn)	inconclusive: 1.65 µM [inhibitor, full curve]
CC(C)NC(=O)c1ccc(NC(=O)CC2SC(N3CCCC3)=NC2=O)cc1 (stereo not drawn)	inactive
COC(=O)c1ccc(NC(=O)N2CCOCC2)cc1	inconclusive: 3.29 µM [inhibitor, single point]
